# From PubChem BioAssay AID1671190 (National Center for Advancing Translational Sciences (NCATS), 2021)
# Chains of the proteins cited; added tags and fusions are not shown.
# UniProt P18054, whole entry, looked up: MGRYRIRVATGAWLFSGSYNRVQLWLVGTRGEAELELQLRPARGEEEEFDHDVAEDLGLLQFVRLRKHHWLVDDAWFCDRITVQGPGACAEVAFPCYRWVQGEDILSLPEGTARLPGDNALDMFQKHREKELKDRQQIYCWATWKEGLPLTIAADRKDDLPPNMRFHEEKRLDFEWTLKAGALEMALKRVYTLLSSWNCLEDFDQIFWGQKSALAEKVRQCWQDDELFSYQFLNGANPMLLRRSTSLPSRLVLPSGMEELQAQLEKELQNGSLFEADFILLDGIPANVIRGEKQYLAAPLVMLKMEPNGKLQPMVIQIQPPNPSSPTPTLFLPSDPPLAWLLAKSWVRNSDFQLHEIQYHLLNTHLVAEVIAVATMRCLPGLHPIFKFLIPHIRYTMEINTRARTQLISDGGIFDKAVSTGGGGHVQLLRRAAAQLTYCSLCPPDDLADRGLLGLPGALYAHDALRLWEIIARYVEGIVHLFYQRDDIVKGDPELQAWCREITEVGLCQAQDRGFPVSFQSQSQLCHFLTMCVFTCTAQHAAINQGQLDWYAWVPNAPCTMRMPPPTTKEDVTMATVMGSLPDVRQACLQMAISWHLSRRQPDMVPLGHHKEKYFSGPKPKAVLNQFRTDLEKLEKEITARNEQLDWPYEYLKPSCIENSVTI
# The campaign covered roughly 580,000 compounds. About 6,100 (1.1%) were called active. This list was built around the results that the source calls inconclusive (neither active nor inactive); the mix of calls is not that of the screen. Calls come from the whole dose curve; as a rule, active = well fitted inhibition curve with a large enough effect; inconclusive = small, poorly fitted or top-dose-only effect, or another doubt; inactive = no such curve, though single readings can be large or run the other way. A potency beside an inconclusive call is a rough fit, not a confirmed value.
# Target: Polyunsaturated fatty acid lipoxygenase ALOX12 (Homo sapiens) (UniProt P18054)
# Assay: Primary qHTS assay for inhibitors of human arachidonate 12S-lipoxygenase (ALOX12): Round 2
# Conditions: purified 12hLO, xylenol orange hydroperoxide absorbance; series mostly up to 108 µM
# Method in brief: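 Hydroperoxide product was detected by ferrous iron/xylenol orange as the 573 to 405 nm absorbance ratio. Arachidonic acid at 40 uM (final) was turned over for 30 min at room temperature by 150 nM human 12hLO, pH 7.0 Hepes buffer, after 15 min compound preincubation.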
# Potency is the fitted concentration of half-maximal effect.
row,SMILES,Potency
1,CC(=O)c1c(-c2ccc(Cl)cc2)c2ccccc2[nH]c1=O,"inconclusive: 11.2 µM [inhibitor, full curve, poor fit]"
2,CCOC(=O)C1=C(CSc2nc(CC)c(C)cc2C#N)OC(N)=C(C#N)C1c1ccccc1 (stereo not given),"inconclusive: 17.8 µM [inhibitor, full curve, poor fit]"
3,CC(C)(C)NCC(O)COc1ccc(Br)cc1 (stereo not given),"inconclusive: 126 µM [inhibitor, partial curve, poor fit]"
4,COc1cccc(CNC(=O)Cn2nc(C(=O)O)c3ccccc3c2=O)c1,"inconclusive: 70.8 µM [inhibitor, partial curve, poor fit]"
5,Cc1ccc(OCCCN(C)C)c(Br)c1,"inconclusive: 1.58 µM [inhibitor, full curve, poor fit]"
6,O=C(COc1ccccc1)NNc1nc2ccccc2s1,"inconclusive: 79.4 µM [inhibitor, single point]"
7,CCCNC(=O)c1ccc(-n2nc(Sc3ccc(Cl)cc3)ccc2=O)cc1,inactive
8,CC(=O)Nc1cc(-c2ccccc2N(C)C)cn2c(-c3cccc(C(F)(F)F)c3)cnc12,active: 8.91 µM
9,COC(=O)Oc1ccc(/C=N/NC(=O)CSCc2ccc(Cl)cc2)cc1OC,inactive
10,COc1ccc(Br)cc1CNCc1c(C(=O)O)c(C)n(Cc2ccccc2C)c1C,"inconclusive: 79.4 µM [inhibitor, partial curve, poor fit]"
11,Cc1ccc(C)c(-c2cc(C(=O)O)c3ccc(C)c(C)c3n2)c1,"inconclusive: 100 µM [inhibitor, partial curve, poor fit]"
12,Cc1cc(NC(=O)CS(=O)(=O)c2cn(Cc3cccc(Cl)c3)c3ccccc23)no1,inactive
13,CCOC(=O)N1CCN(S(=O)(=O)c2ccc(C)c(C)c2)CC1,inactive
14,O=C(Cn1c(=O)[nH]c2ccccc2c1=O)Nc1ccc2c(c1)OCO2,inactive
15,c1ccc2c(c1)ccc1ncccc12,inactive
16,O=C(NCCCN1CCCC1=O)c1ccc(S(=O)(=O)Nc2ccccc2F)cc1,"inconclusive: 2.24 µM [inhibitor, partial curve, poor fit]"
17,CN=c1scc(-c2cccs2)n1/N=C/c1ccccc1,inactive
18,COc1ccccc1NC(=O)c1ccc(CN(c2cc(Cl)ccc2C)S(=O)(=O)c2ccccc2)cc1,"inconclusive: 39.8 µM [inhibitor, single point]"
19,Nc1nc2c(F)c(F)c(F)cc2s1,"inconclusive: 79.4 µM [inhibitor, single point]"
20,O=C(/C=C/C=C/c1ccccc1)c1ccc2oc3ccccc3c2c1,"inconclusive: 25.1 µM [inhibitor, full curve]"

# From entry 14 to 18, as listed above:
row,SMILES,Potency
14,O=C(Cn1c(=O)[nH]c2ccccc2c1=O)Nc1ccc2c(c1)OCO2,inactive
15,c1ccc2c(c1)ccc1ncccc12,inactive
16,O=C(NCCCN1CCCC1=O)c1ccc(S(=O)(=O)Nc2ccccc2F)cc1,"inconclusive: 2.24 µM [inhibitor, partial curve, poor fit]"
17,CN=c1scc(-c2cccs2)n1/N=C/c1ccccc1,inactive
18,COc1ccccc1NC(=O)c1ccc(CN(c2cc(Cl)ccc2C)S(=O)(=O)c2ccccc2)cc1,"inconclusive: 39.8 µM [inhibitor, single point]"
